# Experimental data reported in publication doi:10.1101/2025.04.09.648038.
# No constants are given. Whether binding was seen depends on the method and setting. For part of these data: Binding can be weak; no strength is given. For part of these data: In cells and extracts the contact can be indirect.
# Key:
# [1] = biological target: T1, Atg8 (yeast two-hybrid bait in pGBKT7) (S. pombe) (UniProt O94272); experiment: two-hybrid
# T1 sequence: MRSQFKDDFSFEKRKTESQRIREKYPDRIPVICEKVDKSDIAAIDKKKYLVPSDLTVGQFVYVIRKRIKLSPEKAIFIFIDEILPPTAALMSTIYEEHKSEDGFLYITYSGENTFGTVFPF
# [2] = biological target: T2, Atg8 (construct of the co-immunoprecipitation) (S. pombe) (UniProt O94272); experiment: co-IP
# T2 sequence: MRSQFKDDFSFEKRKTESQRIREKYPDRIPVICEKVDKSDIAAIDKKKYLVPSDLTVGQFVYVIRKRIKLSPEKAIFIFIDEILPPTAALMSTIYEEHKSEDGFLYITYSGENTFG
binding [1],binding [2],Substance
binds,–,Npr1 (yeast two-hybrid prey in pGADT7) (S. pombe)
no binding,–,Npr1(W22A/V25A) (yeast two-hybrid prey in pGADT7) (S. pombe)
–,no binding,Npr1-W22A/V25A (construct of the co-immunoprecipitation) (S. pombe)
